Source: the supplement of paper PMC8728848
This is one part of the list.

Key:
Experiment in all cases: glycan array binding signal (z-score within array); higher = stronger binding
Conditions in all cases: glycan notation: IUPAC condensed, linker removed
[1] = target: Gal(a1-3)[Gal(a1-4)]Gal(b1-4)GlcNAc
Summary of the method: (§1)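 Columns mapping to the same glycan were averaged after glycan names were converted to IUPAC-condensed notation. The data come from 3228 arrays in the Consortium for Functional Glycomics database, limited to those with an available protein sequence. Binding is reported as a within-array Z-score averaged across arrays of one protein sequence and across linkers.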

[2] = target: Gal(a1-4)Gal(b1-3)GlcNAc(b1-2)Man(a1-3)[Gal(a1-4)Gal(b1-3)GlcNAc(b1-2)Man(a1-6)]Man(b1-4)GlcNAc(b1-4)GlcNAc
Summary of the method: as §1

Gal(a1-4)Gal(b1-4)Glc = target: Gal(a1-4)Gal(b1-4)Glc
Summary of the method: as §1

Gal(a1-4)Gal(b1-4)GlcNAc = target: Gal(a1-4)Gal(b1-4)GlcNAc
Summary of the method: as §1

[3] = target: Gal(a1-4)Gal(b1-4)GlcNAc(b1-2)Man(a1-3)[Gal(a1-4)Gal(b1-4)GlcNAc(b1-2)Man(a1-6)]Man(b1-4)GlcNAc(b1-4)GlcNAc
Summary of the method: as §1

[4] = target: Gal(a1-4)Gal(b1-4)GlcNAc(b1-3)Gal(b1-4)Glc
Summary of the method: as §1

Gal(a1-4)GlcNAc = target: Gal(a1-4)GlcNAc
Summary of the method: as §1

Gal(a1-6)Glc = target: Gal(a1-6)Glc
Summary of the method: as §1

Gal(b1-2)Gal = target: Gal(b1-2)Gal
Summary of the method: as §1

Gal(b1-3)Gal = target: Gal(b1-3)Gal
Summary of the method: as §1

Gal(b1-3)Gal(b1-4)GlcNAc = target: Gal(b1-3)Gal(b1-4)GlcNAc
Summary of the method: as §1

Gal(b1-3)GalNAc = target: Gal(b1-3)GalNAc
Summary of the method: as §1

[5] = target: Gal(b1-3)GalNAc(a1-3)[Fuc(a1-2)]Gal(b1-4)Glc
Summary of the method: as §1

[6] = target: Gal(b1-3)GalNAc(a1-3)[Fuc(a1-2)]Gal(b1-4)GlcNAc
Summary of the method: as §1

Gal(b1-3)GalNAc(b1-3)Gal = target: Gal(b1-3)GalNAc(b1-3)Gal
Summary of the method: as §1

[7] = target: Gal(b1-3)GalNAc(b1-3)Gal(a1-4)Gal(b1-4)Glc
Summary of the method: as §1

[8] = target: Gal(b1-3)GalNAc(b1-4)Gal(b1-4)Glc
Summary of the method: as §1

[9] = target: Gal(b1-3)GalNAc(b1-4)[Neu5Ac(a2-3)]Gal(b1-4)Glc
Summary of the method: as §1

Gal(b1-3)GlcNAc = target: Gal(b1-3)GlcNAc
Summary of the method: as §1

[10] = target: Gal(b1-3)GlcNAc(a1-3)Gal(b1-4)GlcNAc
Summary of the method: as §1

[11] = target: Gal(b1-3)GlcNAc(a1-6)Gal(b1-4)GlcNAc
Summary of the method: as §1

Gal(b1-3)GlcNAc(b1-2)Man = target: Gal(b1-3)GlcNAc(b1-2)Man
Summary of the method: as §1

[12] = target: Gal(b1-3)GlcNAc(b1-2)Man(a1-3)[Gal(b1-3)GlcNAc(b1-2)Man(a1-6)]Man(b1-4)GlcNAc(b1-4)GlcNAc
Summary of the method: as §1

[13] = target: Gal(b1-3)GlcNAc(b1-2)Man(a1-3)[Gal(b1-3)GlcNAc(b1-2)Man(a1-6)]Man(b1-4)GlcNAc(b1-4)[Fuc(a1-6)]GlcNAc
Summary of the method: as §1

[14] = target: Gal(b1-3)GlcNAc(b1-2)Man(a1-3)[GlcNAc(b1-4)][Gal(b1-3)GlcNAc(b1-2)Man(a1-6)]Man(b1-4)GlcNAc(b1-4)GlcNAc
Summary of the method: as §1

[15] = target: Gal(b1-3)GlcNAc(b1-2)[Gal(b1-3)GlcNAc(b1-6)]Man(a1-6)[Gal(b1-3)GlcNAc(b1-2)Man(a1-3)]Man(b1-4)GlcNAc(b1-4)GlcNAc
Summary of the method: as §1

[16] = target: Gal(b1-3)GlcNAc(b1-3)Gal(b1-3)GlcNAc
Summary of the method: as §1

[17] = target: Gal(b1-3)GlcNAc(b1-3)Gal(b1-4)Glc
Summary of the method: as §1

[18] = target: Gal(b1-3)GlcNAc(b1-3)Gal(b1-4)GlcNAc
Summary of the method: as §1

[19] = target: Gal(b1-3)GlcNAc(b1-3)Gal(b1-4)GlcNAc(b1-2)Man(a1-3)[Gal(b1-3)GlcNAc(b1-3)Gal(b1-4)GlcNAc(b1-2)Man(a1-6)]Man(b1-4)GlcNAc(b1-4)GlcNAc
Summary of the method: as §1

[20] = target: Gal(b1-3)GlcNAc(b1-3)Gal(b1-4)GlcNAc(b1-2)[Gal(b1-3)GlcNAc(b1-3)Gal(b1-4)GlcNAc(b1-6)]Man(a1-6)[Gal(b1-3)GlcNAc(b1-3)Gal(b1-4)GlcNAc(b1-2)Man(a1-3)]Man(b1-4)GlcNAc(b1-4)[Fuc(a1-6)]GlcNAc
Summary of the method: as §1

[21] = target: Gal(b1-3)GlcNAc(b1-3)Gal(b1-4)GlcNAc(b1-3)Gal(b1-4)GlcNAc(b1-2)[Gal(b1-3)GlcNAc(b1-3)Gal(b1-4)GlcNAc(b1-3)Gal(b1-4)GlcNAc(b1-6)]Man(a1-6)[Gal(b1-3)GlcNAc(b1-3)Gal(b1-4)GlcNAc(b1-3)Gal(b1-4)GlcNAc(b1-2)Man(a1-3)]Man(b1-4)GlcNAc(b1-4)[Fuc(a1-6)]GlcNAc
Summary of the method: as §1

[22] = target: Gal(b1-3)GlcNAc(b1-3)Gal(b1-4)GlcNAc(b1-6)[Gal(b1-3)GlcNAc(b1-3)]Gal(b1-4)Glc
Summary of the method: as §1

[23] = target: Gal(b1-3)GlcNAc(b1-3)Gal(b1-4)[Fuc(a1-3)]GlcNAc
Summary of the method: as §1

[24] = target: Gal(b1-3)GlcNAc(b1-3)Gal(b1-4)[Fuc(a1-3)]GlcNAc(b1-6)[Gal(b1-3)GlcNAc(b1-3)]Gal(b1-4)Glc
Summary of the method: as §1

[25] = target: Gal(b1-3)GlcNAc(b1-3)GalNAc
Summary of the method: as §1

[26] = target: Gal(b1-3)GlcNAc(b1-6)Gal(b1-4)GlcNAc
Summary of the method: as §1

[27] = target: Gal(b1-3)GlcNAc(b1-6)GalNAc
Summary of the method: as §1

B1: Clec39 (Caenorhabditis elegans) (protein)
chain: MTSFYDNSSSSSKPVPLKTSRAQKIQILIFDNWKLILYGAISTLILVLAIMFSTLFFALPAANCDENSEPTKYYTTNAEITTTITTTNQKTTSTASSHLTTISSSATQIYSESSSSSTSQSTFTQSPPEISTTTIAPSDFSCQHGFTLVNNKCWKLVTSNQARPDADKICNGYGGATLFSIKSEQDNRAMIHFVKGQDIDFLWSGLLCSAGEPISCIWDIENGSTANYSNFADGFPNIVYGNCVYFITSGDEAGQWGNEQCGQVMNFVCELPATFQGKDGCKNNYEKSCYLRFDLNLTVPQAQNFCLEKCANLVSIHSANEVRFIMTIYDFIGEILIGALAPAQDFIYWLDGTPANYNNLKFFYNSTCVHMTVAPGMQNVGKWFTRFCTETGKFLCKRSIKNSCT
glycan array binding signal (z-score) [1]: -0.164
glycan array binding signal (z-score) [2]: -0.183
glycan array binding signal (z-score) (Gal(a1-4)Gal(b1-4)Glc): -1.72
glycan array binding signal (z-score) (Gal(a1-4)Gal(b1-4)GlcNAc): -0.405
glycan array binding signal (z-score) [3]: 0.105
glycan array binding signal (z-score) [4]: -0.562
glycan array binding signal (z-score) (Gal(a1-4)GlcNAc): -0.759
glycan array binding signal (z-score) (Gal(a1-6)Glc): -0.393
glycan array binding signal (z-score) (Gal(b1-2)Gal): 0.354
glycan array binding signal (z-score) (Gal(b1-3)Gal): -0.611
glycan array binding signal (z-score) (Gal(b1-3)Gal(b1-4)GlcNAc): -0.891
glycan array binding signal (z-score) (Gal(b1-3)GalNAc): 0.424
glycan array binding signal (z-score) [5]: -0.047
glycan array binding signal (z-score) [6]: -0.567
glycan array binding signal (z-score) (Gal(b1-3)GalNAc(b1-3)Gal): -0.318
glycan array binding signal (z-score) [7]: 0.073
glycan array binding signal (z-score) [8]: 0.045
glycan array binding signal (z-score) [9]: -0.59
glycan array binding signal (z-score) (Gal(b1-3)GlcNAc): -0.56
glycan array binding signal (z-score) [10]: -0.68
glycan array binding signal (z-score) [11]: -0.821
glycan array binding signal (z-score) (Gal(b1-3)GlcNAc(b1-2)Man): 0.026
glycan array binding signal (z-score) [12]: 1.62
glycan array binding signal (z-score) [13]: -0.079
glycan array binding signal (z-score) [14]: 0.28
glycan array binding signal (z-score) [15]: 0.065
glycan array binding signal (z-score) [16]: -1.07
glycan array binding signal (z-score) [17]: -0.912
glycan array binding signal (z-score) [18]: -1.34
glycan array binding signal (z-score) [19]: 0.262
glycan array binding signal (z-score) [20]: 0.48
glycan array binding signal (z-score) [21]: 0.744
glycan array binding signal (z-score) [22]: 0.201
glycan array binding signal (z-score) [23]: -0.715
glycan array binding signal (z-score) [24]: 0.976
glycan array binding signal (z-score) [25]: -0.666
glycan array binding signal (z-score) [26]: -0.45
glycan array binding signal (z-score) [27]: 0.196
